The source of these data is patent US20190100591A1 (ITEOS BELGIUM, published 2019).

Assay [1] deals with cynomolgus TIGIT on primary CD8+ T cells (Macaca fascicularis (cynomolgus)). Nature of the assay: flow cytometry on stimulated cynomolgus PBMC, gated on CD69+CD8+ T cells, detection with anti-human Ig (Fc gamma specific)-PE. (A flow cytometer gives signals particle by particle.)
Assay [2] has as its target T1, human TIGIT expressed on cells (human, UniProt Q495A1 22-244).
T1 construct: whole, on cells; on Jurkat E6.1 cells transduced with human TIGIT, on Promega TIGIT effector cells or on human primary T cells; the cell is named under assay; also called hTIGIT; Jurkat-hTIGIT
T1 sequence (looked up): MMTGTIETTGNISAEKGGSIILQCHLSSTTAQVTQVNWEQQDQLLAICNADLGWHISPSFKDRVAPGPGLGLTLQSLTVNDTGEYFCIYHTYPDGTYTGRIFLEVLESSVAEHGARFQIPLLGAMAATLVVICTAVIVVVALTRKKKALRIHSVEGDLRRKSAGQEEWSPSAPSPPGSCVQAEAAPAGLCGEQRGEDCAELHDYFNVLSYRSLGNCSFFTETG
Nature of the assay: flow cytometry on Jurkat-hTIGIT, detection with anti-human Ig (Fc gamma specific)-PE.

The target in assay [3] is T1, human TIGIT expressed on cells. Nature of the assay: flow cytometry, Jurkat-hTIGIT.
The target is the same in assay [4]. Briefly: flow cytometry on PBMC of cancer patients, MFI on gated TIGIT+CD8+ T cells, detection with anti-human Ig (Fc gamma specific)-PE.
For assay [5] the target is unchanged. Briefly: flow cytometry competition on Jurkat-hTIGIT: cells incubated with the antibody, washed, then CD155-His (15 ug/ml) detected with anti-His-PE; blocked ligand CD155-His.
For assay [6] the target is unchanged. Briefly: flow cytometry on human PBMC of healthy donors, MFI on gated TIGIT+CD8+ T cells, detection with anti-human Ig (Fc gamma specific)-PE.

These are yes or no findings as the source states them, for the method shown. Some entries that bind do so weakly or less than the wild type.

B1: anti-TIGIT antibody clone 29520 (antibody, V domains shown)
VH: QVQLVESGGGLVQPGRSLRLSCAASGFTFRDYAMHWVRQAPGKGLEWVSGITWNSGLIGYADSVKGRFTISRDNAKNSLYLQMNSLRAEDTALYYCAKPVPRLRGLDVWGQGTMVTVSS
VL: DIQLTQSPSSVSASVGDRVTITCRASQGISSWLAWYQQKPGKAPKLLIYGASSLQSGVPSRFSGSGSGTDFTLTISSLQPEDFATYYCQQAFYLPWTFGGGTKVEIK
On to B1, for which the binding entry in assay [1] is on record as “binds”.

B2: anti-TIGIT antibody clone 29527 (antibody, V domains shown)
VH: QVQLVESGGGVVQPGRSLRLSCAASGFTFSSSYMHWVRQAPGKGLEWVAVIGADGSNKYYADSVEGRFTISRDNSKNTLYLQMNSLRAEDTALYYCAKPVPRRRGLDVWGQGTMVTVSS
VL: DIQLTQSPSSVSASVGDRVTITCRASQGISSWLAWYQQKPGKAPKLLIYGASSLQSGVPSRFSGSGSGTDFTLTISSLQPEDFATYYCQQAFYLPWTFGGGTKVEIK
For B2, in assay [1], the binding result is listed as “binds”.

B3: anti-TIGIT antibody TIG1 (antibody, human IgG1, V domains shown)
VH: DVQLVESGGGLVQPGGSRKLSCAASGFTFSNFGMHWVRQAPEKGLEWVAFISSGSSSIYYADTVKGRFTISRDNPKNTLFLQMTSLRSEDTAMYYCARMRLDYYAMDYWGQGTSVTVSS
VL: DVQITQSPSYLAASPGETITINCRASKSISKYLAWYQEKPGKTNKLLIYSGSTLQSGIPSRFSGSGSGTDFTLTISSLEPEDFAMYYCQQHNEYPWTFGGGTKLEIK
Take B3: the binding entry in assay [2], in assay [3], in assay [4], in assay [5] and in assay [6] was “binds” in each case.
